Values from PubChem BioAssay AID1224829 (NIAID, 2016).

Assay: 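Follow-up of TLR4-NF-kappaB regulators using six separate siRNAs for each gene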 (follow-up of hits)
Cells: mouse RAW264.7 G9 macrophage reporter cells
Reagents: single siRNA against mouse genes, 100 nM
Duration: 2 days of siRNA knock-down, then 40 min of LPS before fixing
Conditions: LPS (Salmonella minnesota R595) at 10 ng/ml
Read-out: 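High-content images after 40 min LPS exposure; GFP-p65 nucleus to surrounding ring signal ratio, normalised to plate median and non-targeting control wells, expressed as z-score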
Reading the numbers: p65 translocation z-score and gene median z-score, per vendor: higher = more nuclear NF-kappaB p65 after LPS
Active means: 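An siRNA is called active when the mean z-score of its two replicates is above 2 or below -2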
Meaning of the calls: active = changed p65 translocation (either direction); inactive = no clear change
This is a random part of about 3,800 deposited reagents. 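Calls cover raised and lowered translocation; gene median uses one vendor's three siRNAs; qiagen siRNAs acted more weakly than ambion siRNAs.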 A number with no mark means an inactive call. The numbers tell different reagents against one gene apart. No sequences are given here.

no.	Target gene	reagent no.	siRNA vendor or control pool	p65 translocation z-score, replicate mean	p65 translocation z-score, replicate 1	p65 translocation z-score, replicate 2	gene median z-score, per vendor
1	Rufy3 (RUN and FYVE domain containing 3)	1	ambion single siRNA	2.37 (active)	2.68	2.07	1.31
2	Rufy3 (RUN and FYVE domain containing 3)	2	ambion single siRNA	1.58	2.61	0.548	1.31
3	Rufy3 (RUN and FYVE domain containing 3)	3	ambion single siRNA	-0.543	-0.208	-0.878	1.31
4	Rufy3 (RUN and FYVE domain containing 3)	4	qiagen single siRNA	1.56	1.15	1.97	0.423
5	Rufy3 (RUN and FYVE domain containing 3)	5	qiagen single siRNA	0.564	-0.305	1.43	0.423
6	Rufy3 (RUN and FYVE domain containing 3)	6	qiagen single siRNA	-2.99 (active)	-2.47	-3.51	0.423
7	Fau (FAU ubiquitin like and ribosomal protein S30 fusion)	1	ambion single siRNA	-0.309	1.02	-1.63	-1.63
8	Fau (FAU ubiquitin like and ribosomal protein S30 fusion)	2	ambion single siRNA	-3.46 (active)	-2.92	-3.99	-1.63
9	Fau (FAU ubiquitin like and ribosomal protein S30 fusion)	3	ambion single siRNA	0.0793	0.0793		-1.63
10	Fau (FAU ubiquitin like and ribosomal protein S30 fusion)	4	qiagen single siRNA	-3.41 (active)	-3.7	-3.12	-1.31
11	Fau (FAU ubiquitin like and ribosomal protein S30 fusion)	5	qiagen single siRNA	0.546	-0.194	1.29	-1.31
12	Fau (FAU ubiquitin like and ribosomal protein S30 fusion)	6	qiagen single siRNA	-1.31	-0.537	-2.08	-1.31
13	Or8k35 (olfactory receptor family 8 subfamily K member 35)	1	qiagen single siRNA	3.73 (active)	1.24	6.23	0.486
14	Or8k35 (olfactory receptor family 8 subfamily K member 35)	2	qiagen single siRNA	-0.225	-0.412	-0.0383	0.486
15	Or8k35 (olfactory receptor family 8 subfamily K member 35)	3	qiagen single siRNA	0.486	0.579	0.394	0.486
16	P2rx5 (purinergic receptor P2X, ligand-gated ion channel, 5)	1	ambion single siRNA	0.969	0.841	1.1	0.709
17	P2rx5 (purinergic receptor P2X, ligand-gated ion channel, 5)	2	ambion single siRNA	0.709	0.709		0.709
18	P2rx5 (purinergic receptor P2X, ligand-gated ion channel, 5)	3	ambion single siRNA	-4.14 (active)	-5.13	-3.15	0.709
19	P2rx5 (purinergic receptor P2X, ligand-gated ion channel, 5)	4	qiagen single siRNA	0.177	-0.506	0.861	-1.15
20	P2rx5 (purinergic receptor P2X, ligand-gated ion channel, 5)	5	qiagen single siRNA	-0.825	0.146	-1.8	-1.15
21	P2rx5 (purinergic receptor P2X, ligand-gated ion channel, 5)	6	qiagen single siRNA	-2.52 (active)	-1.88	-3.15	-1.15
22	Il17rd (interleukin 17 receptor D)	1	ambion single siRNA	1.3	1.49	1.11	0.547
23	Il17rd (interleukin 17 receptor D)	2	ambion single siRNA	0.547	0.878	0.217	0.547
24	Il17rd (interleukin 17 receptor D)	3	ambion single siRNA	-4.45 (active)	-4.17	-4.72	0.547
25	Il17rd (interleukin 17 receptor D)	4	qiagen single siRNA	0.385	0.135	0.634	0.135
26	Il17rd (interleukin 17 receptor D)	5	qiagen single siRNA	1.35	-0.175	2.87	0.135
27	Il17rd (interleukin 17 receptor D)	6	qiagen single siRNA	-3.32 (active)	-3.32		0.135
28	D6Ertd160e (DNA segment, Chr 6, ERATO Doi 160, expressed)	1	qiagen single siRNA	2.06 (active)	1.97	2.16	0.511
29	D6Ertd160e (DNA segment, Chr 6, ERATO Doi 160, expressed)	2	qiagen single siRNA	-0.0358	-1.25	1.18	0.511
30	D6Ertd160e (DNA segment, Chr 6, ERATO Doi 160, expressed)	3	qiagen single siRNA	-0.401	-0.155	-0.647	0.511
31	Ammecr1l (AMME chromosomal region gene 1-like)	1	ambion single siRNA	-1.71	-0.568	-2.84	-2.9
32	Ammecr1l (AMME chromosomal region gene 1-like)	2	ambion single siRNA	-3.59 (active)	-3.34	-3.83	-2.9
33	Ammecr1l (AMME chromosomal region gene 1-like)	3	ambion single siRNA	-2.81 (active)	-2.95	-2.67	-2.9
34	Ammecr1l (AMME chromosomal region gene 1-like)	4	qiagen single siRNA	0.745	0.77	0.72	0.179
35	Ammecr1l (AMME chromosomal region gene 1-like)	5	qiagen single siRNA	-0.767	-1.29	-0.249	0.179
36	Ammecr1l (AMME chromosomal region gene 1-like)	6	qiagen single siRNA	-0.398	-1.4	0.608	0.179
37	Cacna1d (calcium channel, voltage-dependent, L type, alpha 1D subunit)	1	ambion single siRNA	-0.505	1.7	-2.71	-2.09
38	Cacna1d (calcium channel, voltage-dependent, L type, alpha 1D subunit)	2	ambion single siRNA	-3.87 (active)	-3.9	-3.84	-2.09
39	Cacna1d (calcium channel, voltage-dependent, L type, alpha 1D subunit)	3	ambion single siRNA	0.381	2.23	-1.47	-2.09
40	Cacna1d (calcium channel, voltage-dependent, L type, alpha 1D subunit)	4	qiagen single siRNA	0.899	0.197	1.6	0.0407
41	Cacna1d (calcium channel, voltage-dependent, L type, alpha 1D subunit)	5	qiagen single siRNA	-1.75	-1.75		0.0407
42	Cacna1d (calcium channel, voltage-dependent, L type, alpha 1D subunit)	6	qiagen single siRNA	-0.0883	0.0407	-0.217	0.0407
43	Pex13 (peroxisomal biogenesis factor 13)	1	ambion single siRNA	-2.12 (active)	-2.4	-1.83	-2.53
44	Pex13 (peroxisomal biogenesis factor 13)	2	ambion single siRNA	-3.25 (active)	-2.65	-3.85	-2.53
45	Pex13 (peroxisomal biogenesis factor 13)	3	ambion single siRNA	-2.68 (active)	-3.27	-2.1	-2.53
46	Pex13 (peroxisomal biogenesis factor 13)	4	qiagen single siRNA	2.08 (active)	1.25	2.92	1.09
47	Pex13 (peroxisomal biogenesis factor 13)	5	qiagen single siRNA	2.56 (active)	0.937	4.17	1.09
48	Pex13 (peroxisomal biogenesis factor 13)	6	qiagen single siRNA	0.23	0.136	0.324	1.09
49	Nr0b2 (nuclear receptor subfamily 0, group B, member 2)	1	ambion single siRNA	-0.0398	-0.73	0.651	-2.6
50	Nr0b2 (nuclear receptor subfamily 0, group B, member 2)	2	ambion single siRNA	-2.82 (active)	-2.82		-2.6
51	Nr0b2 (nuclear receptor subfamily 0, group B, member 2)	3	ambion single siRNA	-3.35 (active)	-4.1	-2.6	-2.6
52	Nr0b2 (nuclear receptor subfamily 0, group B, member 2)	4	qiagen single siRNA	-4.01 (active)	-2.56	-5.46	-5.46
53	Nr0b2 (nuclear receptor subfamily 0, group B, member 2)	5	qiagen single siRNA	-5.96 (active)	-5.96		-5.46
54	Nr0b2 (nuclear receptor subfamily 0, group B, member 2)	6	qiagen single siRNA	-3.95 (active)	-1.63	-6.28	-5.46

Look-ups from the entries so far.
Under “p65 translocation z-score, replicate 1”, Il17rd (interleukin 17 receptor D) #5, siRNA vendor or control pool qiagen single siRNA reads -0.175
Fau (FAU ubiquitin like and ribosomal protein S30 fusion) #4, siRNA vendor or control pool qiagen single siRNA, gene median z-score, per vendor: -1.31 (active)
P2rx5 (purinergic receptor P2X, ligand-gated ion channel, 5) #2, siRNA vendor or control pool ambion single siRNA, gene median z-score, per vendor: 0.709
Il17rd (interleukin 17 receptor D) #6, siRNA vendor or control pool qiagen single siRNA, gene median z-score, per vendor: 0.135 (active)
